# Experimental data taken from the supplement of paper PMC11237882.
# The other results are listed elsewhere or left out. Values are worked out from sequencing counts and are noisy.
# T1: Homer1 EVH1 domain
# T1 chain: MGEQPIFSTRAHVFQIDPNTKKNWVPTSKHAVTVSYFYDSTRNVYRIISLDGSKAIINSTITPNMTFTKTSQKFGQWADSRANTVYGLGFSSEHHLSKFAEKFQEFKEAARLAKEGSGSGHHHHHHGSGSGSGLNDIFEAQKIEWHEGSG
# Biological target: T1, Homer1 EVH1 domain
# Experiment: enrichment score (AUC of log2 frequency ratio across FACS sorting rounds) (log2 AUC); higher = stronger enrichment for Homer1 EVH1 binding
row,Binder,enrichment score
1,MAILPLLLCLLPLAPASSPPQSATPSPCPRRCRCQT,3.1
2,MAAKVFESIGKFGLALAVAGGVVNSALYNVDAGHRA,-0.66
3,MRGHELPLVLLALVLCLTPRGRAVPLPAGGGTVLTK,1.85
4,WVSVLSDAWNSSPHPETRSMIVCLLFMMILLAKEVQ,1.32
5,IQDNRYILCKTACVAATFFIHFFYLSVFFWMLTLVL,3.36
6,PYLPLPEAAPAQAQADSLTVYLVVALASVSSLFLFS,2.86
7,LLWLHTSFAFLYLLLTVYSMRRHTSKMRYKEDDLVK,-0.904
8,KVFSTCASHLTALSIFYGTIIFIYLQPNSSQSVDTD,2.21
9,NIPAISELLHTPAHVLPSAAFLFSMFVNSLLLSKET,3.36
10,QLLPLAVPIQRPQVPPEGSGPPGQKHQEVFLVNSLG,0.472
11,PATLNPIIYGMRTKQLRARIWSYLMHVLFDHSNLGS,-3.67
12,MITGNMALIQVQATVVGFLASIAAVVFGWIPDGHFS,2.98
13,ISLTVIEKVQIAAIVLGSLFLVASISWLIWSSLSPS,0.159
14,VASWIMGVMHSMSQVIFALTLPFCGPYEVDSFFCDL,1.31
15,PEPGQDSVGPEPSEVRLLPGGGDPDITYGSPWLAFP,3.03
16,MVLGSVLLLCILFTCFCVTAKRTVKKCFPEDIAQQN,0.357
17,MKSMMPTDEQFAAIIVLGFATLSILFAFILQYFLMK,2.64
18,MANTTGEPEEVSGALSPPSASAYVKLVLLGLIMCVY,3.31
19,PMLRGRFQRPKPNLSRAGKKSVLSQGKTDSESKNSH,0.0131
20,YRGSFQGFYPNSTYFYLFSLELFCLYLSFICKNSIR,0.967
21,FPVALGLGVAVGAEAAAIMVNLLQIVRDHWVHVLVP,1.26
22,VGGAGAGLHPVVYPCTALLLLCLFATIITYILNHSS,3.33
23,DLVLASSTAPKALAVLLVHAHEIGYIVCLIQMFFIH,0.331
24,SFIPDGFYIYYPMLVVILCIATYFSLGTRCLNLLGF,4
25,SFKELGLLLMYLAVGIFVFSALGYTMEQSHPETLFK,1.58
26,LVAFFLLIQACPWTYYVYGLLPLPIWYAVLREFQVI,-0.986
27,SNWWIQVTSLRIFVWLLLLSFMQVIAIVLYLMMPIV,2.06
28,LFCVGPLPCTLLLTLGYVLYASAMTLLTERGKLHQL,0.334
